# Data published in patent US20110045604A1.
# The chains behind the UniProt entries cited, without tags or fusion partners. Residues count along the entry.
# UniProt Q96RT1, residues 1321-1410: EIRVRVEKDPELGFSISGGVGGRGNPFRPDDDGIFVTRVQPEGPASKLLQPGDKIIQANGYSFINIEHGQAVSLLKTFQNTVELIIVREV
# No constants are given. Whether binding was seen depends on the method and setting. Some entries that bind do so weakly or less than the wild type. Sequences can lack the tags named with a protein.
# Molecular target: T1, SUMO-ARVCF peptide fusion protein (yeast)
# T1 sequence: PQPVDSWV
# Experiment: binding analysis of purified protein
substance,measurement,value
Erbin PDZ (from UniProt Q96RT1 1321-1410),binding,binds
